In patent US20250075147A1, “FRAGRANCE AND FLAVOR COMPOSITIONS COMPRISING NEW FLAVOR AND FRAGRANCE INGREDIENTS” (priority 2023, published 2025):

Key:
[1] = Evaluation by trained and/or certified flavor or fragrance chemists or master perfumers; categorization by commercial prospect; conditions: category of commercial prospect, (A) highest > (B) > (C) > (D) lowest; (E) requires further study
odor evaluation panel = assay: Odor evaluation panel rating of odorants by Rate-All-That-Apply (RATA) method with 55-word odor lexicon, plus intensity and pleasantness; design: species or system human; conditions: for Floral: mean panelist score for odor label floral (RATA); for Fruity: mean panelist score for odor label fruity (RATA); for Spicy: mean panelist score for odor label spicy (RATA); for Sweet: mean panelist score for odor label sweet (RATA); for Pleasantness: mean panelist score for odor pleasantness

| SMILES | Rating [1] | Floral (odor evaluation panel) | Fruity (odor evaluation panel) | Spicy (odor evaluation panel) | Sweet (odor evaluation panel) | Pleasantness (odor evaluation panel) |
| --- | --- | --- | --- | --- | --- | --- |
| c1cnn(C2CCCCO2)c1 (centres unmarked) [Compound 188, 1-(oxan-2-yl)pyrazole] | (D) | 0.629 | 0.171 | 0.229 | 0.457 | 4.757 |
| c1ccc(CCc2ccccc2)cc1 [Compound 190, 2-phenylethylbenzene] | (D) | 0.562 | 0.312 | 0.156 | 1 | 5.556 |
| CCCC(O)C(CC)CO (centres unmarked) [Compound 191, 2-ethylhexane-1,3-diol] | (C) | 0.167 | 0.167 | 0.133 | 0.733 | 4.43 |
| CC(=NO)C(C)(C)C [Compound 193, N-(3,3-dimethylbutan-2-ylidene)hydroxylamine] | (A) | 0 | 0 | 0.4 | 0.033 | 3.323 |
| SCCOCCOCCS [Compound 194, 2-[2-(2-sulfanylethoxy)ethoxy]ethanethiol] | (D) | 0.056 | 0 | 0.083 | 0 |  |
| c1cncc(Cn2cccc2)c1 [Compound 196, 3-(pyrrol-1-ylmethyl)pyridine] | (D) | 0.324 | 0.324 | 0.176 | 1 | 5.279 |
| CC1(C(=O)O)CCCCC1 [Compound 200, 1-methylcyclohexane-1-carboxylic acid] | (D) | 0.273 | 0.515 | 0.455 | 1.242 | 4.77 |
| CC#CC(=O)O [Compound 201, but-2-ynoic acid] | (D) | 0 | 0.25 | 0.139 | 0.333 |  |
| CCCC(=O)OCCOC(=O)CCC [Compound 203, 2-butanoyloxyethyl butanoate] | (D) | 0.125 | 0.594 | 0.125 | 0.312 | 4.853 |
| CCC1CCCCC1 [Compound 209, ethylcyclohexane] | (C) | 0.233 | 0.1 | 0 | 0.567 | 4.453 |
| CC1(C)CC(=O)CC(C)(C)N1 [Compound 210, 2,2,6,6-tetramethylpiperidin-4-one] | (D) | 0 | 0.057 | 0.114 | 0.114 | 2.991 |
| CC(C)Sc1ccccc1 [Compound 211, propan-2-ylsulfanylbenzene] | (D) | 1.25 | 0.125 | 0.156 | 0.844 | 4.553 |
| Cc1cn[nH]c1C [Compound 216, 4,5-dimethyl-1H-pyrazole] | (A) | 0 | 0.094 | 0.469 | 0.875 | 5.556 |
| CCCCCCn1ccnc1 [Compound 222, 1-hexylimidazole] | (D) | 0.139 | 0.028 | 0 | 0.139 |  |
| c1cnc2c(c1)CCC2 [Compound 225, 6,7-dihydro-5H-cyclopenta[b]pyridine] | (D) | 0 | 0.235 | 0.118 | 0.529 | 5.259 |
| CCCC(=O)c1ccc2c(c1)OCO2 [Compound 227, 1-(1,3-benzodioxol-5-yl)butan-1-one] | (B) | 0.156 | 1.406 | 0.094 | 0.906 | 6.281 |
| COC(=O)C1=CCCC1 [Compound 229, methyl cyclopentene-1-carboxylate] | (A) | 0.417 | 0.889 | 0.056 | 0.722 |  |
| c1ccn2ccnc2c1 [Compound 230, imidazo[1,2-a]pyridine] | (D) | 0 | 0.111 | 0.278 | 0.139 |  |
| C1=CCCCCCC1 [Compound 232, cyclooctene] | (A) | 0.219 | 0.219 | 0.281 | 0.531 | 5.053 |
| NC(CO)Cc1ccccc1 (centres unmarked) [Compound 238, 2-amino-3-phenylpropan-1-ol] | (D) | 0.2 | 0 | 0.114 | 0.114 | 3.891 |

| SMILES | Rating [1] | Floral (odor evaluation panel) | Fruity (odor evaluation panel) | Spicy (odor evaluation panel) | Sweet (odor evaluation panel) | Pleasantness (odor evaluation panel) |
| --- | --- | --- | --- | --- | --- | --- |
| CCC(C)(O)C(=O)O (centres unmarked) [Compound 239, 2-hydroxy-2-methylbutanoic acid] | (D) | 0 | 0.543 | 0 | 0.286 | 5.266 |
| OC12CC3CC(C1)CC(O)(C3)C2 [Compound 240, adamantane-1,3-diol] | (D) | 0.083 | 0 | 0 | 0.25 |  |
| CC(=NO)c1ccccc1 [Compound 241, N-(1-phenylethylidene)hydroxylamine] | (D) | 0.969 | 0.188 | 0.094 | 0.781 | 5.066 |
| OCC1CC=CCC1 (centres unmarked) [Compound 245, cyclohex-3-en-1-ylmethanol] | (D) | 0.389 | 0.333 | 0.194 | 0.611 |  |
| Nc1nc(=S)ss1 [Compound 246, 5-amino-1,2,4-dithiazole-3-thione] | (D) | 0 | 0 | 0.281 | 0.125 | 4.744 |
| NCCOc1ccccc1 [Compound 251, 2-phenoxyethanamine] | (D) | 0 | 0 | 0.125 | 0.062 | 5.234 |
| O=[N+]([O-])c1ccc(C=NO)o1 [Compound 253, N-[(5-nitrofuran-2-yl)methylidene]hydroxylamine] | (D) | 0.031 | 0 | 0.438 | 0.062 | 4.369 |
| CCCCC(=O)c1ccc(C)cc1 [Compound 257, 1-(4-methylphenyl)pentan-1-one] | (C) | 0.867 | 2.4 | 0.4 | 1.833 | 7.283 |
| Oc1cccc2c1CCCC2 [Compound 258, 5,6,7,8-tetrahydronaphthalen-1-ol] | (D) | 0 | 0.083 | 0.25 | 0.278 |  |
| COc1ccnc(OC)n1 [Compound 259, 2,4-dimethoxypyrimidine] | (A) | 0 | 0.088 | 0 | 0.529 | 5.671 |
| Cc1nc2cc(C)c(C)cc2s1 [Compound 260, 2,5,6-trimethyl-1,3-benzothiazole] | (D) | 0.406 | 0.156 | 0.094 | 0.688 | 5.097 |
| N#Cc1ccncc1 [Compound 261, pyridine-4-carbonitrile] | (B) | 0.143 | 0.429 | 0.057 | 0.829 | 5.774 |
| c1ccc2c(c1)COC2 [Compound 263, 1,3-dihydro-2-benzofuran] | (A) | 0.938 | 1.188 | 0.781 | 1.875 | 6.453 |
| CN(C)C(C)(C)CO [Compound 265, 2-(dimethylamino)-2-methylpropan-1-ol] | (D) | 0.125 | 0.062 | 0.031 | 0.344 | 3.091 |
| CCOc1c(OCC)c(=O)c1=O [Compound 268, 3,4-diethoxycyclobut-3-ene-1,2-dione] | (B) | 0.125 | 0.75 | 0 | 0.531 | 5.756 |
| CCCCOc1ccccn1 [Compound 272, 2-butoxypyridine] | (A) | 0.417 | 0.306 | 0.833 | 0.583 |  |
| CCOC(=O)CCNCc1ccccc1 [Compound 273, ethyl 3-(benzylamino)propanoate] | (B) | 0.028 | 0 | 0.25 | 0 |  |
| CC1OC(C)OC(C)OC(C)O1 (centres unmarked) [Compound 275, 2,4,6,8-tetramethyl-1,3,5,7-tetraoxocane] | (A) | 0.29 | 0.548 | 0 | 1.065 | 5.965 |
| Cc1cccc2cc[nH]c12 [Compound 276, 7-methyl-1H-indole] | (B) | 0.188 | 0 | 0.188 | 0.219 | 3.581 |
